The supplement of paper PMC10849652
This is one part of the list.

Chains of the proteins cited; added tags and fusions are not shown. Lines headed by an entry give the natural chain unless they say otherwise; changes in a name come on top.
UniProt Q9NU53: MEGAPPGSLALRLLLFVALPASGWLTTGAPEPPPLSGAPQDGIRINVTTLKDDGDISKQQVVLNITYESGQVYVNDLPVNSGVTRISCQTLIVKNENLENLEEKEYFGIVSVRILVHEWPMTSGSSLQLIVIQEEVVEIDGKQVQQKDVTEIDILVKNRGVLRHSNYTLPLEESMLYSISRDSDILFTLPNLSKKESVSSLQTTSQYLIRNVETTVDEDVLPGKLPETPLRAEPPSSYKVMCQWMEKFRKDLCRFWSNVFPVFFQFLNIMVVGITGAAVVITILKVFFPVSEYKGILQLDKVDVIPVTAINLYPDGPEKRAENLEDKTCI
UniProt Q9BQQ3: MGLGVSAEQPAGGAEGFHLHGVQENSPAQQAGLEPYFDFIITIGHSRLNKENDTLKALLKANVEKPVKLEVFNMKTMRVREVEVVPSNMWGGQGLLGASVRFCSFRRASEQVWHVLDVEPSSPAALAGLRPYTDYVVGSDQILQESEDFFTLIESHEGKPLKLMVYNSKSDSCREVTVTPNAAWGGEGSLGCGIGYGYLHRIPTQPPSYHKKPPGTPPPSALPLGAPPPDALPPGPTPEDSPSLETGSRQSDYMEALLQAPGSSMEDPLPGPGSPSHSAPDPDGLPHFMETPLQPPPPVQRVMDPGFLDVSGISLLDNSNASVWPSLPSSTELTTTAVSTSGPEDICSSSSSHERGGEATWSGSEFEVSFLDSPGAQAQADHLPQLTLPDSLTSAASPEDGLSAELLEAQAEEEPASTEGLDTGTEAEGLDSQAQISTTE
UniProt Q9H4A5: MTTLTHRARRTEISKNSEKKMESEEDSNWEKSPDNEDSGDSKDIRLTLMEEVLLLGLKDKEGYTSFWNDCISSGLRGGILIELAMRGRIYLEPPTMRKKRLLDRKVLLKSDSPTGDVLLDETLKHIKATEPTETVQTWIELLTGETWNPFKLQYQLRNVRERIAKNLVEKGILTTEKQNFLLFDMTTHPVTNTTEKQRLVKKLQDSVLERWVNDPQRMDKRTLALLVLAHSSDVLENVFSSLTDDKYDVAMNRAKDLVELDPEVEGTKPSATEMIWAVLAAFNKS
UniProt P17302, whole entry, looked up: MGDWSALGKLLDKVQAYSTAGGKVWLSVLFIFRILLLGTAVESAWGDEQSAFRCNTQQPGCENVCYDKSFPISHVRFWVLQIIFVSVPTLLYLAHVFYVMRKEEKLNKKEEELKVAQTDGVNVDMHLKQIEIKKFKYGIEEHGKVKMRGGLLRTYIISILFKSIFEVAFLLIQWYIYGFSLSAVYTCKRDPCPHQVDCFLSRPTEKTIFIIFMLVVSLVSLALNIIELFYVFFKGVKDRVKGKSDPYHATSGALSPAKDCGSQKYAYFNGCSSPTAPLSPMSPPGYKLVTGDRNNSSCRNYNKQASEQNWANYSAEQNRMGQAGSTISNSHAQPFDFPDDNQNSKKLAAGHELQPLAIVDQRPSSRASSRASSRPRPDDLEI
UniProt Q14687: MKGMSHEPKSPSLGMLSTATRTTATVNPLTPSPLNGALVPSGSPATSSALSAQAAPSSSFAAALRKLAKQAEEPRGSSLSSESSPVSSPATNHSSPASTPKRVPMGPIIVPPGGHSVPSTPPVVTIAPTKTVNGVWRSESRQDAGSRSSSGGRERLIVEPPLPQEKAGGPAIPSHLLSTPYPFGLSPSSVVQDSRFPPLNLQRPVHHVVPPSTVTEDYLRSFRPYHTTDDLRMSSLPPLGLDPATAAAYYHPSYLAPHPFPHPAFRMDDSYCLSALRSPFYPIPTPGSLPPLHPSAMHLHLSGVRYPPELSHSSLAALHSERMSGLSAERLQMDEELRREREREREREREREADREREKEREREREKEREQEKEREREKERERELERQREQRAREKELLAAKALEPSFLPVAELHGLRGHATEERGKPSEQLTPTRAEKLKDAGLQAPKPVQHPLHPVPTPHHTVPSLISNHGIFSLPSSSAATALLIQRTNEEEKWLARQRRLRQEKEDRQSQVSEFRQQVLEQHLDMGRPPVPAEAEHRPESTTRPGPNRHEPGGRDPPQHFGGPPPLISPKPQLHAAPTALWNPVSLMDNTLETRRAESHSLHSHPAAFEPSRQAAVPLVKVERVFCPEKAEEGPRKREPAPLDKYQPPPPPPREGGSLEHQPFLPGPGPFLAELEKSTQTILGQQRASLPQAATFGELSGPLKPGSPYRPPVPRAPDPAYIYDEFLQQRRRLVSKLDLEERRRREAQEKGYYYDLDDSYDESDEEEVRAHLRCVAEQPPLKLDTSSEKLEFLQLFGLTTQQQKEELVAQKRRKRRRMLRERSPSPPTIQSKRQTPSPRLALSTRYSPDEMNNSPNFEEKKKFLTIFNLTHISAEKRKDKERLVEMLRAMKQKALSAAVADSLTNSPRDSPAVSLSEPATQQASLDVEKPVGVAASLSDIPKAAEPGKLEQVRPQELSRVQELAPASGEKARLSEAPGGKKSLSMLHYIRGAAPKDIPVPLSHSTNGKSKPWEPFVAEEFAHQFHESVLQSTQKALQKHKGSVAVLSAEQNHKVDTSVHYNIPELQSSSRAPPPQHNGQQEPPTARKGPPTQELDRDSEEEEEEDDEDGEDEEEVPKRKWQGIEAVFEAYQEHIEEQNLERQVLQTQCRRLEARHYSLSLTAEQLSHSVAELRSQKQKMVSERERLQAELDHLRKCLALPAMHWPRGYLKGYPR
UniProt Q9UJJ9: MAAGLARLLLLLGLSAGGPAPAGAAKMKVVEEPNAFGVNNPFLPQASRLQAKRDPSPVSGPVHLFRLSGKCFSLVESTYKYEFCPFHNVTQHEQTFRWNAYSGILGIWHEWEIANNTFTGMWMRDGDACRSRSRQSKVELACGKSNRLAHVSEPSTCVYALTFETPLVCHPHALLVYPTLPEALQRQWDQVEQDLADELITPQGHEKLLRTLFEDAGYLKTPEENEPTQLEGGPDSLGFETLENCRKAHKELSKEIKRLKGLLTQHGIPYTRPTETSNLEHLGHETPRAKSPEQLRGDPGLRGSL
UniProt Q92805: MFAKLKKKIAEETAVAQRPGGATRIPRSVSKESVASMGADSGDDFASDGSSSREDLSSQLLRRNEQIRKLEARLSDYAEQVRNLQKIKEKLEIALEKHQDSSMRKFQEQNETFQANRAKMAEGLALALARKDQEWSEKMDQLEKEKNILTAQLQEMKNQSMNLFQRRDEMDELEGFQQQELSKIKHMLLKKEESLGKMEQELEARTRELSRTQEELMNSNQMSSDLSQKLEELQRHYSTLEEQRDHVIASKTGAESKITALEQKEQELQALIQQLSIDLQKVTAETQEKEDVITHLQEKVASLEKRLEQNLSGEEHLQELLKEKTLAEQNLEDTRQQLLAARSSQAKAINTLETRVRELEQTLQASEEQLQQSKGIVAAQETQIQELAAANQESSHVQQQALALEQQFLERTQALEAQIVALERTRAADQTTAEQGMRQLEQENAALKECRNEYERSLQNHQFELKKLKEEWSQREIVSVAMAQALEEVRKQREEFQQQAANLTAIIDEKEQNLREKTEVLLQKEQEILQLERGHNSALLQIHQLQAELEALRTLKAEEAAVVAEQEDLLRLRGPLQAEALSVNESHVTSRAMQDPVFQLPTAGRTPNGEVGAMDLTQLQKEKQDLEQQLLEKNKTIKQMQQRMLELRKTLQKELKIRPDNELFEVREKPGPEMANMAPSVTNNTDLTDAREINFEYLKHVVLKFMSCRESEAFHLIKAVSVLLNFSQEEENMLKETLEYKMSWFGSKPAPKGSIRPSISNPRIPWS
UniProt Q9HCN6: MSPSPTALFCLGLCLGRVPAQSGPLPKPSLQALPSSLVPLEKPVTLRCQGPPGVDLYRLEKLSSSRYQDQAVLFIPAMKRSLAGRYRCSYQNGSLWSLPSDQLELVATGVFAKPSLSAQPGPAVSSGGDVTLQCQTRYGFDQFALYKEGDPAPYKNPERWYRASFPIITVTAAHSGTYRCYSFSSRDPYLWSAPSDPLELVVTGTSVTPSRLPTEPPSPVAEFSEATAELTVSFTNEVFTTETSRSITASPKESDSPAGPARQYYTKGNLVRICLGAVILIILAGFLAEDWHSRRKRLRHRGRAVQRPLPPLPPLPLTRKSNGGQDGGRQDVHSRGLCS
UniProt O60443: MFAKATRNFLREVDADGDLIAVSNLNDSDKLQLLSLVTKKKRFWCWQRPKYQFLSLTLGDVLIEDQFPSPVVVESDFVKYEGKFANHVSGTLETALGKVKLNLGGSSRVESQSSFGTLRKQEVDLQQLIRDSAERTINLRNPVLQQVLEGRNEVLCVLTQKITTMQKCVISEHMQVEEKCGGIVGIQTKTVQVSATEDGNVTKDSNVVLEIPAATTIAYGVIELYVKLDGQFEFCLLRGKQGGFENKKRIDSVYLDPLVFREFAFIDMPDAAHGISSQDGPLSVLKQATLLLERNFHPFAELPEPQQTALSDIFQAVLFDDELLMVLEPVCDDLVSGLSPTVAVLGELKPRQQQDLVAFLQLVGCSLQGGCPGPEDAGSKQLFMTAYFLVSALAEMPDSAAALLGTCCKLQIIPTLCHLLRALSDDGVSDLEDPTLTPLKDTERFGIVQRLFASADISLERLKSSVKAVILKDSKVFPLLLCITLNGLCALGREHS
UniProt Q9HCL2: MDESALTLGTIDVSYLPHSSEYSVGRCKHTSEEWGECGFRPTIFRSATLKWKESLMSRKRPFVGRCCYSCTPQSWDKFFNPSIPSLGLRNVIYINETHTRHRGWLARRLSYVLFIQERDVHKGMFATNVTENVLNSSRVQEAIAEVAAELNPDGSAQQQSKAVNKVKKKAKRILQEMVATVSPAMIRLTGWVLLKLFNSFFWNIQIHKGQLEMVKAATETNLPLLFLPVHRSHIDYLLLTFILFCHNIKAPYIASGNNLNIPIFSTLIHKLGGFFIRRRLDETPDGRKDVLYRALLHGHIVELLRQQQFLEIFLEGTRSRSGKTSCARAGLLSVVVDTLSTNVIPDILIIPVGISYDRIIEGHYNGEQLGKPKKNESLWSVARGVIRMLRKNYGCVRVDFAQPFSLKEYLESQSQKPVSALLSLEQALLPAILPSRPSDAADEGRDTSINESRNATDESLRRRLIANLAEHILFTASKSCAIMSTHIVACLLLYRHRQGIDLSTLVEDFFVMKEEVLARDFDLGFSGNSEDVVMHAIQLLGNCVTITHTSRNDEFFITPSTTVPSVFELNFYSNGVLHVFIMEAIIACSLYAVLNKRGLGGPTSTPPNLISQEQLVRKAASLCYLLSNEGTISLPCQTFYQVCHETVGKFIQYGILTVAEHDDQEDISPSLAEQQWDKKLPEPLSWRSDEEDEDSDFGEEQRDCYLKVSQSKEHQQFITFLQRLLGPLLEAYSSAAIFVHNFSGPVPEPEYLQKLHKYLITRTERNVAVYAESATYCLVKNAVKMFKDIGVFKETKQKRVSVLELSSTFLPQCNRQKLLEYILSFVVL
UniProt P22352, whole entry, looked up: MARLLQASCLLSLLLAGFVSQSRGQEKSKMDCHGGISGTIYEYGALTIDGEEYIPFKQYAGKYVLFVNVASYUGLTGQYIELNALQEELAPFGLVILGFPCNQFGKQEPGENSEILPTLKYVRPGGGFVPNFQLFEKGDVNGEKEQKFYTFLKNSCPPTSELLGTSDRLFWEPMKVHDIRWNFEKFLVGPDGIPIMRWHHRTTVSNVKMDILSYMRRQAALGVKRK
UniProt Q6ZS86: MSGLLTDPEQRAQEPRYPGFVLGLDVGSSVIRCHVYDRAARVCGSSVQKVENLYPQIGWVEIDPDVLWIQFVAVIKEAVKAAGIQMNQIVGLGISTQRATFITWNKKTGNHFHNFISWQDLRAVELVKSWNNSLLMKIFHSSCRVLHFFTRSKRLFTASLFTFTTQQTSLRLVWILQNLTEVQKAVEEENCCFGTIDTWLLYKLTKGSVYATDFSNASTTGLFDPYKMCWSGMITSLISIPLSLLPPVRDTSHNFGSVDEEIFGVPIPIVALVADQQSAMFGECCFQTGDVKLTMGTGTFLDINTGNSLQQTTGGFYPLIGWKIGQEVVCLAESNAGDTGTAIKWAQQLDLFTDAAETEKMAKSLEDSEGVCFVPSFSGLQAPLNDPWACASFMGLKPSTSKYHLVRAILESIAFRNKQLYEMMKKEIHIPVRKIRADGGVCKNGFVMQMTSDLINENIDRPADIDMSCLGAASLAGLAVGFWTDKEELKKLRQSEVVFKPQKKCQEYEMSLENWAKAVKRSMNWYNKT
UniProt Q15743: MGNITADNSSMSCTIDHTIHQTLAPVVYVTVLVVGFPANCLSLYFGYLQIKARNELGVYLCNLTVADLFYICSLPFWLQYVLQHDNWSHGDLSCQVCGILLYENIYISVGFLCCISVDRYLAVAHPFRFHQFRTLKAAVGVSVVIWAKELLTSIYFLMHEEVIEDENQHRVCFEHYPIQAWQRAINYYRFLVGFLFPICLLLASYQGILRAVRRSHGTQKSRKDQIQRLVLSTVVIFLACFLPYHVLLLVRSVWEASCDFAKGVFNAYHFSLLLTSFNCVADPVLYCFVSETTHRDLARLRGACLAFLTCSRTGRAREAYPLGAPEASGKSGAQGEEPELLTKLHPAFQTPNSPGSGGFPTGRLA
UniProt Q9UBI6: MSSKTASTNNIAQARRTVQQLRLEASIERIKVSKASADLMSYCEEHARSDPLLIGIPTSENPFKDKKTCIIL

Tests used:
Experiment in all cases: log2 fold change, soluble protein after heating vs DMSO (PISA); higher = thermal stabilisation; K562 cells, 10 uM, 30 min; active = over 0.2 and 3.5 SD of the protein, either way, in both replicates (recomputed)
sotrastaurin = compound: CN1CCN(c2nc(C3=C(c4c[nH]c5ccccc45)C(=O)NC3=O)c3ccccc3n2)CC1 [sotrastaurin]
Procedure, shortened: (§1)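 K562 cells at 2×10^6 cells/mL were treated with 10 μM compound for 30 min. Aliquots were heated for 3 min across 48°C-58°C, pooled, and extracted in PBS with 0.5% NP-40 at 4°C; soluble protein was the supernatant after 21,000xg for 90 min. Soluble protein was quantified by TMTpro 16plex LC-MS/MS with channel sums equalised, and reported as log2 fold change in thermal stability against DMSO controls, with values from duplicates.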

[1] = compound: CNC(=O)C1=CC=CC=C1NC2=NC(=NC=C2Cl)NC3=C(C=C(C=C3)N4CCOCC4)OC
Procedure, shortened: as §1

rucaparib = compound: CNCc1ccc(-c2[nH]c3cc(F)cc4c3c2CCNC4=O)cc1 [rucaparib]
Procedure, shortened: as §1

encorafenib = compound: COC(=O)N[C@@H](C)CNc1nccc(-c2cn(C(C)C)nc2-c2cc(Cl)cc(NS(C)(=O)=O)c2F)n1 [encorafenib]
Procedure, shortened: as §1

filanesib = compound: CON(C)C(=O)N1N=C(c2cc(F)ccc2F)S[C@@]1(CCCN)c1ccccc1 [filanesib]
Procedure, shortened: as §1

alisertib = compound: COc1cc(Nc2ncc3c(n2)-c2ccc(Cl)cc2C(c2c(F)cccc2OC)=NC3)ccc1C(=O)O [alisertib]
Procedure, shortened: as §1

[2] = compound: COc1cc2nc(-c3cc(F)ccc3O)nc(N[C@@H]3CNC[C@H]3C(C)(C)O)c2cc1OC
Procedure, shortened: as §1

gefitinib = compound: COc1cc2ncnc(Nc3ccc(F)c(Cl)c3)c2cc1OCCCN1CCOCC1 [gefitinib]
Procedure, shortened: as §1

[3] = compound: COc1cccc2cc(-c3nc([C@H]4CC[C@H](C(=O)O)CC4)n4ncnc(N)c34)[nH]c12
Procedure, shortened: as §1

lapatinib = compound: CS(=O)(=O)CCNCc1ccc(-c2ccc3ncnc(Nc4ccc(OCc5cccc(F)c5)c(Cl)c4)c3c2)o1 [lapatinib]
Procedure, shortened: as §1

pictilisib = compound: CS(=O)(=O)N1CCN(Cc2cc3nc(-c4cccc5[nH]ncc45)nc(N4CCOCC4)c3s2)CC1 [pictilisib]
Procedure, shortened: as §1

saracatinib = compound: CN1CCN(CCOc2cc(OC3CCOCC3)c3c(Nc4c(Cl)ccc5c4OCO5)ncnc3c2)CC1 [saracatinib]
Procedure, shortened: as §1

alvocidib = compound: CN1CC[C@H](c2c(O)cc(O)c3c(=O)cc(-c4ccccc4Cl)oc23)[C@H](O)C1 [alvocidib]
Procedure, shortened: as §1

[4] = compound: CNc1nc(-c2ccc3c(N)n[nH]c3c2)cc(N2C[C@@H](C(=O)NC3CCCCC3)CC[C@H]2C)n1
Procedure, shortened: as §1

[5] = compound: COC1=CC=C(C=C1)CN2C=CC3=C2C=C(C=C3)C(=O)NO
Procedure, shortened: as §1

zotarolimus = compound: CO[C@H]1C[C@@H]2CC[C@@H](C)[C@@](O)(O2)C(=O)C(=O)N2CCCC[C@H]2C(=O)O[C@H]([C@H](C)C[C@@H]2CC[C@H](n3cnnn3)[C@H](OC)C2)CC(=O)[C@H](C)/C=C(\C)[C@@H](O)[C@@H](OC)C(=O)[C@H](C)C[C@H](C)/C=C/C=C/C=C/1C [zotarolimus]
Procedure, shortened: as §1

idasanutlin = compound: COc1cc(C(=O)O)ccc1NC(=O)[C@@H]1N[C@@H](CC(C)(C)C)[C@](C#N)(c2ccc(Cl)cc2F)[C@H]1c1cccc(Cl)c1F [idasanutlin]
Procedure, shortened: as §1

Tubastatin A = compound: CN1CCc2c(c3ccccc3n2Cc2ccc(C(=O)NO)cc2)C1 [Tubastatin A]
Procedure, shortened: as §1

defactinib = compound: CNC(=O)c1ccc(Nc2ncc(C(F)(F)F)c(NCc3nccnc3N(C)S(C)(=O)=O)n2)cc1 [defactinib]
Procedure, shortened: as §1

[6] = compound: COC(=O)[C@H](CCSC)NC(=O)C1=C(C=C(C=C1)NC[C@H](CS)N)C2=CC=CC=C2
Procedure, shortened: as §1

Measured: log2 fold change

GINM1 (UniProt Q9NU53)
inactive: sotrastaurin -0.096 | [1] 0.003 | rucaparib 0.112 | encorafenib 0.107 | filanesib 0.025 | alisertib -0.417 | [2] -0.129 | gefitinib -0.367 | [3] 0.038 | lapatinib -0.004 | pictilisib 0.069

GIT2 (UniProt Q14161)
inactive: saracatinib -0.366 | alvocidib -0.118 | [1] -0.068 | [4] 0.028 | [5] -0.17 | zotarolimus 0.106 | idasanutlin 0.108 | alisertib 0.168 | [2] 0.091 | gefitinib 0.115 | [3] 0.163 | lapatinib 0.058

GPAA1 (UniProt E9PLG8)
inactive: saracatinib -0.063 | alvocidib 0.049 | Tubastatin A -0.015 | rucaparib 0.012 | [4] -0.072 | encorafenib -0.019 | [5] -0.174 | zotarolimus 0.004 | idasanutlin -0.093 | alisertib -0.05 | gefitinib -0.062 | [3] -0.179 | pictilisib -0.037

GLT8D1 (UniProt Q68CQ7)
inactive: saracatinib -0.23 | rucaparib 0.044 | [4] 0 | encorafenib 0.02 | idasanutlin -0.211 | gefitinib 0.014 | pictilisib 0.068

GNL3 (UniProt Q9BVP2)
inactive: saracatinib -0.124 | sotrastaurin 0.03 | Tubastatin A 0.304 | defactinib 0.005 | rucaparib -0.052 | [4] 0.044 | encorafenib -0.065 | [6] 0.015 | filanesib -0.038 | zotarolimus -0.012 | idasanutlin -0.212 | alisertib -0.12 | gefitinib 0.067 | [3] 0.071 | pictilisib 0.061

GORASP1 (UniProt Q9BQQ3)
inactive: saracatinib -0.133 | alvocidib -0.046 | rucaparib 0.347 | [4] -0.069 | encorafenib 0.203 | zotarolimus -0.069 | [2] -0.138 | lapatinib -0.174

GLCE (UniProt O94923)
inactive: sotrastaurin 0.004 | alvocidib 0.077 | [1] 0.023 | [5] -0.073 | filanesib -0.005 | zotarolimus -0.117 | [2] 0.145 | gefitinib 0.221 | lapatinib 0.016

GPNMB (UniProt Q14956)
inactive: [1] -0.221 | rucaparib 0.007 | encorafenib -0.25

GOLPH3L (UniProt Q9H4A5)
inactive: sotrastaurin -0.089 | defactinib -0.206 | [6] 0.018 | [5] -0.185 | filanesib 0.206 | idasanutlin -0.001 | alisertib 0.239 | [3] -0.15 | pictilisib -0.003

GPD1 (UniProt P21695)
inactive: saracatinib -0.005 | sotrastaurin 0.065 | Tubastatin A -0.027 | [1] -0.298 | defactinib -0.072 | [4] 0.05 | [6] 0.016 | filanesib -0.083 | zotarolimus 0.022 | idasanutlin -0.289 | alisertib 0.077 | [2] -0.051 | gefitinib 0.368 | [3] 0.111 | lapatinib 0.015 | pictilisib 0.203

GOLGA8R (UniProt I6L899)
active: [5] 0.591
inactive: saracatinib -0.126 | Tubastatin A 0.253 | [1] -0.148 | defactinib -0.197 | rucaparib 0.189 | [4] 0.246 | encorafenib -0.098 | [6] -0.086 | zotarolimus -0.027 | idasanutlin 0.022 | [2] 0.345 | lapatinib -0.093 | pictilisib 0.01

GPS2 (UniProt Q13227)
inactive: sotrastaurin -0.007 | Tubastatin A 0.033 | [1] 0.008 | defactinib -0.079 | rucaparib 0.02 | encorafenib 0.041 | [6] -0.025 | [5] -0.108 | filanesib 0.018 | alisertib -0.067 | [2] 0.135 | gefitinib 0.008 | [3] 0.152 | lapatinib -0.044

Looked up one by one from the entries so far, two records:
GOLPH3L (UniProt Q9H4A5)
inactive: sotrastaurin -0.089 | defactinib -0.206 | [6] 0.018 | [5] -0.185 | filanesib 0.206 | idasanutlin -0.001 | alisertib 0.239 | [3] -0.15 | pictilisib -0.003

GPD1 (UniProt P21695)
inactive: saracatinib -0.005 | sotrastaurin 0.065 | Tubastatin A -0.027 | [1] -0.298 | defactinib -0.072 | [4] 0.05 | [6] 0.016 | filanesib -0.083 | zotarolimus 0.022 | idasanutlin -0.289 | alisertib 0.077 | [2] -0.051 | gefitinib 0.368 | [3] 0.111 | lapatinib 0.015 | pictilisib 0.203

The list continues:

GPATCH2L (UniProt Q9NWQ4)
inactive: Tubastatin A 0.253 | [1] -0.136

GPC4 (UniProt O75487)
inactive: pictilisib 0.293

GNL3L (UniProt Q9NVN8)
inactive: pictilisib -0.053

GJA1 (UniProt P17302)
inactive: pictilisib -0.075

GSE1 (UniProt Q14687)
inactive: saracatinib -0.077 | defactinib 0.027 | [4] -0.014 | zotarolimus -0.063 | gefitinib 0.224
active: [6] -0.498

GRK6 isoform 2 (UniProt P43250)
inactive: saracatinib -0.208 | defactinib -0.046 | [4] 0.127 | [6] 0.046

GPT2 (UniProt Q8TD30)
inactive: saracatinib 0.071 | alvocidib -0.13 | Tubastatin A 0.146 | defactinib -0.148 | [4] 0.075 | [6] -0.095 | zotarolimus -0.27 | idasanutlin -0.092 | alisertib -0.407 | [2] 0.066 | [3] -0.254 | lapatinib 0.005 | pictilisib 0.33

GNPTG (UniProt Q9UJJ9)
inactive: saracatinib 0.061 | alvocidib -0.003 | Tubastatin A 0 | [1] 0.019 | [4] 0.001 | [5] -0.123 | zotarolimus 0.002 | idasanutlin -0.01 | alisertib 0.016 | gefitinib 0.083 | [3] 0.123 | pictilisib 0.14

GOPC (UniProt Q9HD26)
active: [2] 0.668
inactive: saracatinib -0.147 | sotrastaurin 0.01 | Tubastatin A 0.177 | [1] 0.216 | defactinib 0.033 | [4] 0.164 | [6] -0.229 | [5] -0.059 | filanesib 0.259 | zotarolimus 0.329 | idasanutlin 0.007 | alisertib -0.026 | gefitinib 0.137 | [3] -0.146 | lapatinib 0.15 | pictilisib 0.08

GLTP (UniProt Q9NZD2)
inactive: sotrastaurin 0.094 | alvocidib -0.139 | Tubastatin A 0.003 | [1] -0.034 | defactinib -0.133 | rucaparib -0.058 | encorafenib -0.09 | [6] -0.06 | filanesib -0.187 | zotarolimus -0.008 | idasanutlin -0.044 | alisertib 0.335 | [2] 0.167 | gefitinib 0.024 | [3] 0.05 | lapatinib -0.039 | pictilisib -0.057

GOLGA1 (UniProt Q92805)
inactive: saracatinib 0.036 | [1] 0.043 | defactinib -0.042 | [4] -0.007 | [6] -0.017 | idasanutlin 0.02 | [2] -0.236 | lapatinib 0.027 | pictilisib -0.136

GPATCH4 isoform 3 (UniProt Q5T3I0)
inactive: saracatinib -0.125 | alvocidib 0.303 | Tubastatin A -0.073 | defactinib 0.627 | rucaparib 0.149 | [4] -0.038 | encorafenib 0.057 | [6] -0.282 | [5] -0.234 | zotarolimus 0.028 | [2] 0.078 | lapatinib 0.258 | pictilisib 0.002

GREB1 (UniProt Q4ZG55)
inactive: sotrastaurin -0.175 | Tubastatin A 0.264 | [1] -0.113 | defactinib -0.008 | [6] -0.112 | [5] 0.448 | filanesib 0.074 | zotarolimus 0.07 | idasanutlin -0.023

GP6 isoform 3 (UniProt Q9HCN6)
inactive: alvocidib -0.038 | [1] -0.05 | [5] 0.204 | zotarolimus 0.104 | alisertib -0.288 | [3] 0.072

GOLGA6B (UniProt A6NDN3)
inactive: sotrastaurin 0.068 | [1] -0.066 | defactinib -0.211 | [6] -0.475 | [5] 0.088 | filanesib -0.115 | alisertib -0.092 | gefitinib 0.012 | [3] 0.102 | pictilisib 0.144

GLE1 (UniProt Q53GS7)
inactive: saracatinib -0.211 | alvocidib 0.263 | [4] -0.081 | zotarolimus -0.046 | idasanutlin 0.419

GPS1 (UniProt A8K070)
inactive: alvocidib -0.006 | [1] 0.004 | rucaparib -0.046 | encorafenib -0.006 | [5] 0.122 | zotarolimus 0.07 | alisertib -0.043 | gefitinib 0.045 | [3] 0 | pictilisib 0.171

GSDME (UniProt O60443)
inactive: saracatinib 0.146 | [1] -0.032 | rucaparib 0.021 | [4] -0.066 | encorafenib 0.001

GIGYF1 (UniProt O75420)
inactive: sotrastaurin 0.072 | alvocidib 0.033 | [5] -0.1 | filanesib 0 | zotarolimus 0.158 | [2] 0.261 | lapatinib 0.127 | pictilisib 0.011

GPAM (UniProt Q9HCL2)
inactive: sotrastaurin 0.258 | Tubastatin A 0.041 | [1] 0.138 | [5] -0.081 | filanesib 0.123 | idasanutlin 0.037 | [2] 0.079 | gefitinib 0.048 | lapatinib 0.067 | pictilisib -0.111

GPX3 (UniProt P22352)
inactive: saracatinib 0.057 | alvocidib 0.089 | Tubastatin A 0.137 | [1] 0.029 | defactinib 0.094 | rucaparib 0.018 | [4] 0.005 | encorafenib -0.116 | [6] -0.114 | zotarolimus -0.261 | idasanutlin 0.011 | [2] -0.002 | lapatinib -0.039

GK5 (UniProt Q6ZS86)
inactive: saracatinib -0.058 | alvocidib -0.019 | Tubastatin A -0.183 | defactinib -0.055 | [4] -0.039 | [6] -0.091 | [5] -0.008 | zotarolimus -0.049 | idasanutlin -0.034 | [2] -0.025 | lapatinib 0.152 | pictilisib -0.344

GPR68 (UniProt Q15743)
inactive: [5] -0.098 | idasanutlin 0.161

GOLM1 (UniProt Q8NBJ4)
inactive: sotrastaurin 0.193 | alvocidib 0.125 | Tubastatin A 0.404 | [1] 0.028 | defactinib 0.064 | rucaparib -0.118 | encorafenib 0.035 | [6] -0.088 | filanesib 0.005 | zotarolimus -0.181 | alisertib -0.096 | [2] -0.004 | gefitinib -0.028 | [3] 0.26 | lapatinib 0.067

GNL2 (UniProt Q13823)
inactive: Tubastatin A 0.06 | rucaparib 0.381 | encorafenib 0.125 | alisertib -0.177 | [3] 0.051 | pictilisib 0.025

GNG12 (UniProt Q9UBI6)
inactive: pictilisib -0.12
